Test results from patent US12595281B2, “Indodicarbocyanine phosphoramidites with bathochromically shifted absorption and emission, and tunable hydrophobicity” (The Government of the United States of America, as …, priority 2022, dated 2026).
Like-named read-outs stand apart in the source and are kept apart here.

Legend:
[1] = cited from earlier work
[2] = Fluorescence quantum yield against TPP standard; format: physicochemical; details: in methanol, excitation 600 nm
[3] = Excited state fluorescence lifetime of dyes in methanol; format: physicochemical
[4] = Absorption and emission spectra of parent dyes in methanol; format: physicochemical; details: for λmax em: excited at 600 nm

oxazine 720 perchlorate
ΦF of standard ([1]; in MeOH): 0.63

CC(=O)OCCCN1C(=CC=CC=CC2=[N+](CCCOC(C)=O)c3ccc(C(C)(C)C)cc3C2(C)C)C(C)(C)c2cc(C(C)(C)C)ccc21.[I-] [4-tBu, 1,1′-bis(3-acetoxypropyl)-5,5′-bis(tert-butyl)-3,3,3′,3′-tetramethyldicarboindocyanine iodide]
ΦF (fluorescence quantum yield) [2]: identical

CCCCCCOc1ccc2c(c1)C(C)(C)C(=CC=CC=CC1=[N+](CCCOC(C)=O)c3ccc(OCCCCCC)cc3C1(C)C)N2CCCOC(C)=O.[I-] [4-hex, 1,1′-bis(3-acetoxypropyl)-5,5′-bis(n-hexyloxy)-3,3,3′,3′-tetramethyldicarboindocyanine iodide]
ΦF (fluorescence quantum yield) [2]: identical

C1=Cc2nc1c(-c1ccccc1)c1ccc([nH]1)c(-c1ccccc1)c1nc(c(-c3ccccc3)c3ccc([nH]3)c2-c2ccccc2)C=C1 [5,10,15,20-tetraphenylporphyrin]
ΦF of standard ([1]; in toluene): 0.07

COCCOCCOCCOc1ccc2c(c1)C(C)(C)C(=CC=CC=CC1=[N+](CCCO)c3ccc(OCCOCCOCCOC)cc3C1(C)C)N2CCCOC(c1ccccc1)(c1ccccc1)c1ccc(OC)cc1.[I-] [Cy5-Peg, 1-(3-hydroxypropyl)-1′-(3-monomethoxytritylpropyl)-5,5′-bis{2-[2-(2-methoxyethoxy)ethoxy]ethoxy}-3,3,3′,3′-tetramethyl-dicarboindocyanine iodide]
ΦF (fluorescence quantum yield) [2]: 0.07 | τ (excited state fluorescence lifetime) [3]: 0.44 ns | Stokes Shift [4]: 540 cm⁻¹ | λmax abs [4]: 668 nm | λmax em [4]: 693 nm

COc1ccc(C(OCCCN2C(=CC=CC=CC3=[N+](CCCO)c4ccc(Cl)cc4C3(C)C)C(C)(C)c3cc(Cl)ccc32)(c2ccccc2)c2ccccc2)cc1.[I-] [Cy5-Cl, 5,5′-dichloro-1-(3-hydroxypropyl)-1′-(3-monomethoxytritylpropyl)-tetramethyl-dicarboindocyanine iodide]
ΦF (fluorescence quantum yield) [2]: 0.27 | τ (excited state fluorescence lifetime) [3]: 1.11 ns | Stokes Shift [4]: 507 cm⁻¹ | λmax abs [4]: 648 nm | λmax em [4]: 670 nm

CCCCCCOc1ccc2c(c1)C(C)(C)C(=CC=CC=CC1=[N+](CCCO)c3ccc(OCCCCCC)cc3C1(C)C)N2CCCOC(c1ccccc1)(c1ccccc1)c1ccc(OC)cc1.[I-] [Cy5-hex, 1-(3-hydroxypropyl)-1′-(3-monomethoxytritylpropyl)-5,5′-bis(n-hexyloxy)-3,3,3′,3′-tetramethyl-dicarboindocyanine iodide]
ΦF (fluorescence quantum yield) [2]: 0.07 | τ (excited state fluorescence lifetime) [3]: 0.42 ns | Stokes Shift [4]: 619 cm⁻¹ | λmax abs [4]: 670 nm | λmax em [4]: 699 nm

COc1ccc(C(OCCCN2C(=CC=CC=CC3=[N+](CCCO)c4ccc(C(C)(C)C)cc4C3(C)C)C(C)(C)c3cc(C(C)(C)C)ccc32)(c2ccccc2)c2ccccc2)cc1.[I-] [Cy5-tBu, 1-(3-hydroxypropyl)-1′-(3-monomethoxytritylpropyl)-5,5′-bis(tert-butyl)-3,3,3′,3′-tetramethyl-dicarboindocyanine iodide]
ΦF (fluorescence quantum yield) [2]: 0.21 | τ (excited state fluorescence lifetime) [3]: 0.94 ns | Stokes Shift [4]: 541 cm⁻¹ | λmax abs [4]: 654 nm | λmax em [4]: 678 nm
